{"source": "PubChem BioAssay AID743121 (NCATS, 2013)", "assay": "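Knock-downs that sensitise breast cancer cells to camptothecin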 (primary screen)", "system": "MDA-MB-231 cells, a human breast cancer line", "reagents": "single siRNA against human genes, 20 nM siRNA (0.8 pmol per well)", "time to read-out": "120 h (drug added 48 h after transfection, read 72 h later)", "challenge": "camptothecin 20 nM (about EC30) for 72 h; vehicle 0.1% DMSO in parallel plates", "measured": "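Cell viability by ATP luminescence (CellTiter-Glo) as % of non-targeting siRNA wells, and the log2 ratio of viability without drug over viability with camptothecin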", "reading the numbers": "log2 vehicle/camptothecin viability: higher = stronger sensitisation to camptothecin; viability with camptothecin: higher = more viable cells", "units": "viability with camptothecin in % of control", "hit rule": "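Each gene scored by redundant siRNA activity (RSA) over its individual siRNA ratios; a gene is called active at p < 0.001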", "note": "Shown is one part, drawn at random, of about 26,000 deposited reagents. 167 of them (0.63%) count as active. 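Calls are per gene from RSA p-values that are not deposited; an individual active-marked siRNA can sensitise only weakly.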 Unmarked entries are inactive. Reagents against one gene are numbered here. Not all columns of the deposit are shown. No sequences are given here."}
{"gene symbol": "SPAST", "reagent no.": 1, "log2 vehicle/camptothecin viability": 0.00846, "viability with camptothecin": 91.7}
{"gene symbol": "SPAST", "reagent no.": 2, "log2 vehicle/camptothecin viability": -0.243, "viability with camptothecin": 66.4}
{"gene symbol": "SPAST", "reagent no.": 3, "log2 vehicle/camptothecin viability": -0.335, "viability with camptothecin": 107}
{"gene symbol": "SPAST", "reagent no.": 4, "log2 vehicle/camptothecin viability": 0.453, "viability with camptothecin": 43}
{"gene symbol": "CACNB2", "reagent no.": 1, "log2 vehicle/camptothecin viability": 0.0326, "viability with camptothecin": 74.2}
{"gene symbol": "CACNB2", "reagent no.": 2, "log2 vehicle/camptothecin viability": 0.81, "viability with camptothecin": 48.6}
{"gene symbol": "CACNB2", "reagent no.": 3, "log2 vehicle/camptothecin viability": 0.0675, "viability with camptothecin": 100}
{"gene symbol": "CACNB2", "reagent no.": 4, "log2 vehicle/camptothecin viability": 0.479, "viability with camptothecin": 66.9}
{"gene symbol": "LIN7A", "reagent no.": 1, "log2 vehicle/camptothecin viability": 1.01, "viability with camptothecin": 29.9}
{"gene symbol": "LIN7A", "reagent no.": 2, "log2 vehicle/camptothecin viability": -0.0161, "viability with camptothecin": 98.9}
{"gene symbol": "LIN7A", "reagent no.": 3, "log2 vehicle/camptothecin viability": -0.0264, "viability with camptothecin": 107}
{"gene symbol": "LIN7A", "reagent no.": 4, "log2 vehicle/camptothecin viability": -0.107, "viability with camptothecin": 105}
{"gene symbol": "LANCL2", "reagent no.": 1, "log2 vehicle/camptothecin viability": -0.0821, "viability with camptothecin": 95.7}
{"gene symbol": "LANCL2", "reagent no.": 2, "log2 vehicle/camptothecin viability": 0.808, "viability with camptothecin": 34.4}
{"gene symbol": "LANCL2", "reagent no.": 3, "log2 vehicle/camptothecin viability": 0.00529, "viability with camptothecin": 96.8}
{"gene symbol": "LANCL2", "reagent no.": 4, "log2 vehicle/camptothecin viability": 0.172, "viability with camptothecin": 88.8}

The list goes on; the last 4 above are carried over.
{"gene symbol": "LANCL2", "reagent no.": 1, "log2 vehicle/camptothecin viability": -0.0821, "viability with camptothecin": 95.7}
{"gene symbol": "LANCL2", "reagent no.": 2, "log2 vehicle/camptothecin viability": 0.808, "viability with camptothecin": 34.4}
{"gene symbol": "LANCL2", "reagent no.": 3, "log2 vehicle/camptothecin viability": 0.00529, "viability with camptothecin": 96.8}
{"gene symbol": "LANCL2", "reagent no.": 4, "log2 vehicle/camptothecin viability": 0.172, "viability with camptothecin": 88.8}
{"gene symbol": "MEP1A", "reagent no.": 1, "log2 vehicle/camptothecin viability": -0.0797, "viability with camptothecin": 99.4}
{"gene symbol": "MEP1A", "reagent no.": 2, "log2 vehicle/camptothecin viability": -0.0168, "viability with camptothecin": 78.6}
{"gene symbol": "MEP1A", "reagent no.": 3, "log2 vehicle/camptothecin viability": 0.0235, "viability with camptothecin": 105}
{"gene symbol": "MEP1A", "reagent no.": 4, "log2 vehicle/camptothecin viability": -0.174, "viability with camptothecin": 99.9}
{"gene symbol": "MTSS1", "reagent no.": 1, "log2 vehicle/camptothecin viability": 0.103, "viability with camptothecin": 53.8}
{"gene symbol": "MTSS1", "reagent no.": 2, "log2 vehicle/camptothecin viability": -0.0279, "viability with camptothecin": 83.4}
{"gene symbol": "MTSS1", "reagent no.": 3, "log2 vehicle/camptothecin viability": -0.317, "viability with camptothecin": 70.4}
{"gene symbol": "MTSS1", "reagent no.": 4, "log2 vehicle/camptothecin viability": -0.342, "viability with camptothecin": 119}
{"gene symbol": "CYSTM1", "reagent no.": 1, "log2 vehicle/camptothecin viability": -0.418, "viability with camptothecin": 74}
{"gene symbol": "CYSTM1", "reagent no.": 2, "log2 vehicle/camptothecin viability": -0.276, "viability with camptothecin": 64}
{"gene symbol": "CYSTM1", "reagent no.": 3, "log2 vehicle/camptothecin viability": -0.145, "viability with camptothecin": 107}
{"gene symbol": "CYSTM1", "reagent no.": 4, "log2 vehicle/camptothecin viability": -0.437, "viability with camptothecin": 95}
{"gene symbol": "C2orf42", "reagent no.": 1, "log2 vehicle/camptothecin viability": -0.363, "viability with camptothecin": 20.5}
{"gene symbol": "C2orf42", "reagent no.": 2, "log2 vehicle/camptothecin viability": -0.197, "viability with camptothecin": 64}
{"gene symbol": "C2orf42", "reagent no.": 3, "log2 vehicle/camptothecin viability": -0.158, "viability with camptothecin": 71.4}
{"gene symbol": "C2orf42", "reagent no.": 4, "log2 vehicle/camptothecin viability": 0.183, "viability with camptothecin": 36.4}
{"gene symbol": "OR56B4", "reagent no.": 1, "log2 vehicle/camptothecin viability": 0.377, "viability with camptothecin": 50.5}
{"gene symbol": "OR56B4", "reagent no.": 2, "log2 vehicle/camptothecin viability": 0.378, "viability with camptothecin": 53.2}
{"gene symbol": "OR56B4", "reagent no.": 3, "log2 vehicle/camptothecin viability": -0.339, "viability with camptothecin": 123}
{"gene symbol": "OR56B4", "reagent no.": 4, "log2 vehicle/camptothecin viability": 0.00916, "viability with camptothecin": 50.3}
